The target of assay [1] is cynomolgus CD38 antigen (cynomolgus) (UniProt Q5VAN0). Put plainly: ELISA, coated CD38 antigen. In general terms: ELISA stands for enzyme-linked immunosorbent assay.
For assay [2] the target is unchanged. Put plainly: ELISA, coated cynomolgus CD38 antigen.

By UniProt entry, the sequences of proteins in these tests, tags left out. Residues count along the entry.
UniProt Q5VAN0, residues 43-301: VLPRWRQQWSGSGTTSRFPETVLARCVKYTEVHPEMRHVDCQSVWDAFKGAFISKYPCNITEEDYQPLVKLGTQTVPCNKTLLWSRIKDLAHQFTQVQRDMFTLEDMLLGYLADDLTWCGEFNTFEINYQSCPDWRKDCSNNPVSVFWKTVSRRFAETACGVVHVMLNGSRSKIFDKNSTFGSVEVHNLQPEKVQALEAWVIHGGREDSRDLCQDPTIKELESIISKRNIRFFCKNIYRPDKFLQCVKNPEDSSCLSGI

Results are given in words; binding and its absence hold for the method and conditions named. Some binding calls cover weakened binding; strength is not graded here.

B1: H2 antibody (antibody, V domains shown)
VH: EVQLQESGAELVRSGASVKMSCKASGYTFTDYNVHWIKQTPGQGLEWIGYFYPRNGATHYNQKFTGKATLTADTSSSTAYIQISSLTSEDSAVYFCARGETPGTFPYWGQGTLVTVSA
VL: DIVLTQSPASLTVSLGQRATISCRASESVDNFGITFMHWYQQKPGQPPKLLIYRASNLESGIPARFSGSGSRTDFTLTIDPVETDDVATYYCQQSSKDPRTFGGGTKLEIK
In the case of B1, the binding entry in assay [1] and in assay [2] was “binds” in each case.

The record behind these values is US20260217850A1.
